One assay deals with laccase. In words: Thin layer chromatography of enzymatic conversion. The format is biochemical. The note with it: samples at 2, 10, 30, 60, 120 minutes.
In assay [1] the test system is laccase from Myceliophthora thermophila (MtL). The note with it: after 30 minutes; 2 mg/ml morphine in distilled water, 78.3 U/ml MtL.

`CN1CC[C@]23c4c5ccc(O)c4O[C@H]2[C@@H](O)C=C[C@H]3[C@H]1C5` [morphine]: the “time at which the reference dot disappears on TLC (all converted)” value with laccase came to 30 min. The “morphine converted (GC-MS)” value in assay [1] is given as “approx. 60%”.

(Values after patent US20190070268A1, “ABUSE-DETERRENT PHARMACEUTICAL COMPOSITIONS” (priority 2016, published 2019).)
